Source: patent US6682740B1 (Yeda Research and Development Co. Ltd., priority 1997, dated 2004)
At least one peptide structure holds a part that was inferred or is arguable (an end, a ring closure or a residue). Residues, ends and D or L forms follow the SMILES beside them.

Assays:
[1] = tested on: eosinophils in BAL; test: Eosinophils in bronchoalveolar lavage (BAL) of OA-challenged guinea pigs; format: in vivo, guinea pig
[2] = tested on: RBL-2H3 cells; test: Inhibition of antigen-induced (IgE-mediated) β-hexosaminidase secretion by RBL-2H3 cells; format: cell-based, rat; conditions: result in words
Description: Cells. Rat mucosal mast cells, subline RBL-2H3 (Barsumian et al, 1981) were maintained in Eagle's MEM with Earle's salts supplemented by 10% FCS, 2 mM glutamine and antibiotics in a humidified atmosphere with 7% CO2 at 37° C. Secretory Response of Mast Cells. Mediator secretion by mast cells in response to stimulation by FcεRI clustering was monitored by measuring the activity of the granular enzyme β-hexosaminidase. DNP-specific murine IgE mAb, A2 (3 μl ascites) was added to 10^6 cells in 10 ml MEM and incubated in 96-well plates (100 μl suspension/well) for 2 h. Then, monolayers were washed three times with Tyrode's buffer and stimulated with the antigen (DNP11-BSA). […] Following incubation at 37° C. for 1 h, 20 μl of supernatants were taken and incubated with 50 μl of substrate solution (1.3 mg/ml p-nitrophenyl-N-acetyl-β-D-glucosamine in 0.1 M sodium citrate, pH 4.5) at 37° C. for 45 min. The reaction was terminated by the addition of 150 μl of 0.2 M glycine, pH 10.7, and the optical density of the samples was measured at 405 nm. […] Degranulation of the cells was monitored by measuring the activity of the enzyme β-hexosaminidase released into the supernatants after stimulation for 1 h at 37° C. and are presented as net percentages of the cells' total β-hexosaminidase activity.

[3] = tested on: Ovalbumin-Sensitized Guinea Pig Model; test: Anaphylactic shock in ovalbumin-sensitized guinea pig model (death, respiratory parameters); format: in vivo; conditions: pretreatment with aerosolized C3a9 app. 7 μg per GP

CC[C@H](C)[C@H](NC(=O)[C@H](Cc1ccc(O)cc1)NC(=O)[C@H](CC(N)=O)NC(=O)[C@H](CS)NC(=O)[C@H](CS)NC(=O)[C@@H](N)CC(=O)O)C(=O)N[C@H](C(=O)N[C@@H](CCCNC(=N)N)C(N)=O)[C@@H](C)O [C3a9] (H-DCCNYITR-NH2)
eosinophils count, fold above that of the non-sensitized GPs ([1]; C3a9-treated GPs that survived the challenge): 1.7 fold
effect on infiltration of eosinophils ([1]; pretreatment with aerosolized C3a9 app. 7 μg per GP): prevented almost completely the infiltration of eosinophils
Eosinophils (%) Av. ± SD of the total number of cells in BAL ([1]; sensitized, C3a9 treated, exposed to 105 μg OA/GP, n = 6, surviving GPs, 24 hours post challenge): 2.7 ± 0.6%
inhibition of antigen-induced / IgE-dependent degranulation (β-hexosaminidase release) [2]: inhibit IgE-dependent degranulation of RBL-2H3 cells to a similar extent as did C3a2
effect on monitored respiratory distress [3]: blocked the monitored respiratory distress
